These results are taken from patent US20070134231A1, “Method for prolonging activity of autodegradable enzymes and compositions thereof” (priority 2005, published 2007).

Chains of the proteins cited; added tags and fusions are not shown. Residues count along the entry.
UniProt P00747, 97-580 limits assumed: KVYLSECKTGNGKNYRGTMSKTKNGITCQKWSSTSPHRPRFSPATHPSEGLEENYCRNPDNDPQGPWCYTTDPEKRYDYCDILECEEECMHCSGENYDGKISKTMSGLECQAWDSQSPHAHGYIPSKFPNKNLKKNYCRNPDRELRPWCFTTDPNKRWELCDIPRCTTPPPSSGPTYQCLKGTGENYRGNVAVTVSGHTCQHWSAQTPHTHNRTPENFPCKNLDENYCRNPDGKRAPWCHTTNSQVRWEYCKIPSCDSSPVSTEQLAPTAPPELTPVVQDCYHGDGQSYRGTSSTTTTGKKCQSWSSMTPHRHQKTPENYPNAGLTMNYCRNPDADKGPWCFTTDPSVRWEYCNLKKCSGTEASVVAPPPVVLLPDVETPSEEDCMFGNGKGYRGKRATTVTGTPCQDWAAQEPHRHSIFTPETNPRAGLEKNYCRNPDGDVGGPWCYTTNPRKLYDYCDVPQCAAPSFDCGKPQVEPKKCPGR
UniProt P00747, 581-810 limits assumed: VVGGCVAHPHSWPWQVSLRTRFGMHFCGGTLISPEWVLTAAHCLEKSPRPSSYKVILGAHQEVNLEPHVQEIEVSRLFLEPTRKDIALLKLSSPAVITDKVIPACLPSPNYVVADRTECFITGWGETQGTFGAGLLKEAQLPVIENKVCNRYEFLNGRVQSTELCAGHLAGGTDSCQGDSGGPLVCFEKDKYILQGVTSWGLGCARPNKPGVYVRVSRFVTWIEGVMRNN

The structures appear in SMILES notation.

The data set concerns the target T1, human plasmin (Homo sapiens, UniProt P00747).
T1 construct: which cleave a single-chain plasminogen molecule at the Arg^560 -Val^561 peptide bond, producing active plasmin; purchased Talecris, Inc. (Research Triangle Park, North Carolina)
The data set can be described thus: Plasmin precipitation study in buffer solutions (PBS, pH of about 7.4). It counts as physicochemical. The settings on record: single additive, plasmin 1 mg/ml, observed within 2 hours. How it is done: This acidified, lyophilized plasmin was reconstituted with 0.9% (by weight) NaCl solution to a concentration of 10 mg/ml. […] Combinations of ε-aminocaproic acid and gelatin or glycerin were also tested. The concentration of plasmin in the additive-containing buffer was 1 mg/ml.

As for `Cl.NCCC[C@H](N)C(=O)O` [L-ornithine hydrochloride], the “Minimum Concentration of Additive Required to Prevent Visually Observed Plasmin Precipitation” value stood at 50 mM.
